Cell number after 72 h of treatment

Every entry is a combination with AZD7762 at 0.1 µM: NC(=O)Nc1cc(-c2cccc(F)c2)sc1C(=O)N[C@H]1CCCNC1

Drugs:
BI-D1870: CC(C)CCN1c2nc(Nc3cc(F)c(O)c(F)c3)ncc2N(C)C(=O)C1C (centres undefined) at 1 µM
CHIR-265: Cn1c(Nc2ccc(C(F)(F)F)cc2)nc2cc(Oc3ccnc(-c4ncc(C(F)(F)F)[nH]4)c3)ccc21 at 0.4 µM
KU-55933: O=c1cc(-c2cccc3c2Sc2ccccc2S3)oc(N2CCOCC2)c1 at 5 µM
lapatinib: CS(=O)(=O)CCNCc1ccc(-c2ccc3ncnc(Nc4ccc(OCc5cccc(F)c5)c(Cl)c4)c3c2)o1 at 4 µM
U73122: COc1ccc2c(c1)CCC1C2CCC2(C)C(NCCCCCCN3C(=O)C=CC3=O)CCC12 (centres undefined) at 2 µM
GW2580: COc1ccc(COc2ccc(Cc3cnc(N)nc3N)cc2OC)cc1 at 5 µM
cediranib: COc1cc2c(Oc3ccc4[nH]c(C)cc4c3F)ncnc2cc1OCCCN1CCCC1 at 2 µM
GSK650394: O=C(O)c1ccc(-c2c[nH]c3ncc(-c4ccccc4)cc23)cc1C1CCCC1 at 0.8 µM
PF-562271: CN(c1ncccc1CNc1nc(Nc2ccc3c(c2)CC(=O)N3)ncc1C(F)(F)F)S(C)(=O)=O at 0.4 µM
MK-1775: C=CCn1c(=O)c2cnc(Nc3ccc(N4CCN(C)CC4)cc3)nc2n1-c1cccc(C(C)(C)O)n1 at 0.1 µM
pazopanib: Cc1ccc(Nc2nccc(N(C)c3ccc4c(C)n(C)nc4c3)n2)cc1S(N)(=O)=O at 2 µM
ABT-263: CC1(C)CCC(c2ccc(Cl)cc2)=C(CN2CCN(c3ccc(C(=O)NS(=O)(=O)c4ccc(N[C@H](CCN5CCOCC5)CSc5ccccc5)c(S(=O)(=O)C(F)(F)F)c4)cc3)CC2)C1 at 2 µM
nilutamide: CC1(C)NC(=O)N(c2ccc([N+](=O)[O-])c(C(F)(F)F)c2)C1=O at 5 µM
A-769662: N#Cc1c(O)c2c(-c3ccc(-c4ccccc4O)cc3)csc2[nH]c1=O at 10 µM
enzastaurin: Cn1cc(C2=C(c3cn(C4CCN(Cc5ccccn5)CC4)c4ccccc34)C(=O)NC2=O)c2ccccc21 at 4 µM
BI-78D3: O=c1[nH]nc(Sc2ncc([N+](=O)[O-])s2)n1-c1ccc2c(c1)OCCO2 at 1 µM
SU6656: CN(C)S(=O)(=O)c1ccc2c(c1)/C(=C/c1cc3c([nH]1)CCCC3)C(=O)N2 at 2 µM
CP-690550: C[C@@H]1CCN(C(=O)CC#N)C[C@@H]1N(C)c1ncnc2[nH]ccc12 at 5 µM
ENMD-2076: Cc1cc(Nc2cc(N3CCN(C)CC3)nc(/C=C/c3ccccc3)n2)n[nH]1 at 0.2 µM
FH535: Cc1cc([N+](=O)[O-])ccc1NS(=O)(=O)c1cc(Cl)ccc1Cl at 5 µM
cisplatin: N.N.[Cl][Pt][Cl] at 8 µM
ZM336372: Cc1ccc(NC(=O)c2cccc(N(C)C)c2)cc1NC(=O)c1ccc(O)cc1 at 10 µM
veliparib: C[C@]1(c2nc3c(C(N)=O)cccc3[nH]2)CCCN1 at 7 µM
selumetinib: Cn1cnc2c(F)c(Nc3ccc(Br)cc3Cl)c(C(=O)NOCCO)cc21 at 0.075 µM
KU-0063794: COc1ccc(-c2ccc3c(N4CCOCC4)nc(N4C[C@@H](C)O[C@@H](C)C4)nc3n2)cc1CO at 0.1 µM
STA-4783: CN(NC(=O)CC(=O)NN(C)C(=S)c1ccccc1)C(=S)c1ccccc1 at 0.03 µM
sunitinib: CCN(CC)CCNC(=O)c1c(C)[nH]c(/C=C2\C(=O)Nc3ccc(F)cc32)c1C at 2 µM
crizotinib: C[C@@H](Oc1cc(-c2cnn(C3CCNCC3)c2)cnc1N)c1c(Cl)ccc(F)c1Cl at 1 µM
midostaurin: CO[C@@H]1[C@H](N(C)C(=O)c2ccccc2)C[C@H]2O[C@]1(C)n1c3ccccc3c3c4c(c5c6ccccc6n2c5c31)C(=O)NC4 at 0.4 µM
GW0742: Cc1cc(SCc2sc(-c3ccc(C(F)(F)F)c(F)c3)nc2C)ccc1OCC(=O)O at 10 µM
pioglitazone: CCc1ccc(CCOc2ccc(CC3SC(=O)NC3=O)cc2)nc1 (centres undefined) at 10 µM
FK866: O=C(/C=C/c1cccnc1)NCCCCC1CCN(C(=O)c2ccccc2)CC1 at 0.05 µM
GSK0660: COC(=O)c1sccc1S(=O)(=O)Nc1ccc(Nc2ccccc2)cc1OC at 5 µM
fludarabine: Nc1nc(F)nc2c1ncn2[C@@H]1O[C@H](CO)[C@@H](O)[C@@H]1O at 1 µM
nilotinib: Cc1cn(-c2cc(NC(=O)c3ccc(C)c(Nc4nccc(-c5cccnc5)n4)c3)cc(C(F)(F)F)c2)cn1 at 1 µM
NVP-TAE684: COc1cc(N2CCC(N3CCN(C)CC3)CC2)ccc1Nc1ncc(Cl)c(Nc2ccccc2S(=O)(=O)C(C)C)n1 at 0.4 µM
sorafenib: CNC(=O)c1cc(Oc2ccc(NC(=O)Nc3ccc(Cl)c(C(F)(F)F)c3)cc2)ccn1 at 2 µM
embelin: CCCCCCCCCCCC1=C(O)C(=O)C=C(O)C1=O at 6 µM
GW441756: Cn1cc(/C=C2\C(=O)Nc3cccnc32)c2ccccc21 at 2 µM
JZL184: O=C(Oc1ccc([N+](=O)[O-])cc1)N1CCC(C(O)(c2ccc3c(c2)OCO3)c2ccc3c(c2)OCO3)CC1 at 5 µM

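Human melanoma cell lines in 1,536-well plates were treated with two drugs together for 72 h, then fixed, stained and imaged. The read-out is cell count (nuclei) in % of the DMSO control; lower values mean stronger growth inhibition or killing. Every drug was used at one fixed concentration, the higher of two screened. No replicate spread is given; individual values may be noisy.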
Only some of the drugs and lines screened are listed, without regard to their results.

Second drug,COLO 829,COLO 792,C32,COLO 800
CHIR-265,71.5,15.6,61.5,73.8
NVP-TAE684,86.6,57.9,51.3,54.6
SU6656,63.9,28.9,65.8,19.2
GW0742,105,79.6,46.7,54.2
GSK0660,90.3,73.0,76.9,69.3
selumetinib,92.0,24.2,62.5,50.4
KU-0063794,73.6,36.7,65.9,70.0
KU-55933,90.5,55.1,89.1,67.0
PF-562271,83.3,53.0,73.1,71.7
U73122,122,94.3,57.1,29.3
nilutamide,82.1,56.8,69.7,74.3
cisplatin,79.1,49.6,58.1,36.2
GW2580,94.3,62.6,64.2,76.3
MK-1775,51.2,22.1,35.5,37.7
enzastaurin,64.0,33.9,53.2,66.4
cediranib,69.0,43.2,57.3,62.5
lapatinib,80.4,36.0,72.4,49.7
ZM336372,87.3,47.2,67.4,49.3
A-769662,83.5,59.0,81.4,54.7
ENMD-2076,78.3,43.8,54.0,42.8
ABT-263,57.7,5.9,29.2,15.2
FH535,87.9,43.5,79.2,57.1
crizotinib,84.0,52.8,54.0,63.6
GW441756,90.4,45.2,77.0,56.3
CP-690550,101,53.7,71.5,67.8
JZL184,85.5,83.5,80.0,66.2
BI-78D3,81.7,49.3,57.2,55.2
FK866,67.7,21.6,58.3,25.3
sunitinib,91.1,41.3,82.7,31.2
pioglitazone,72.8,46.4,57.6,69.4
fludarabine,74.6,16.1,37.7,65.5
nilotinib,70.4,57.1,60.6,56.7
embelin,57.4,41.6,71.6,68.8
pazopanib,89.1,63.2,83.2,91.9
sorafenib,81.1,50.3,62.2,51.9
veliparib,61.5,34.4,53.6,27.6
GSK650394,87.0,41.2,59.2,66.7
midostaurin,69.6,27.7,65.7,21.6
STA-4783,48.9,14.2,35.3,24.8
BI-D1870,83.4,55.1,62.6,34.3

4 of the entries, repeated:

Second drug,COLO 829,COLO 792,C32,COLO 800
NVP-TAE684,86.6,57.9,51.3,54.6
lapatinib,80.4,36.0,72.4,49.7
embelin,57.4,41.6,71.6,68.8
GW2580,94.3,62.6,64.2,76.3

Source: doi:10.1371/journal.pone.0140310, primary screening data, rounded.